The supplement of paper PMC7661543
Differences between knockout arms are mostly noise.

System: HCC-38
Assay: relative cell number vs DMSO control (72 h) (% of DMSO); higher = less growth inhibition (more cells)
Procedure: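 QMAP-Seq: a pool of 5 breast cancer cell lines (ZR-75-1, SKBR3, HCC-38, MDA-MB-231, BT-20), each carrying 12 doxycycline-inducible Cas9 sgRNA perturbations (11 knockouts plus non-targeting sgNT), was treated with compounds for 72 h at four 10-fold doses (10 nM-10 uM or 1 nM-1 uM range). Barcodes were amplified and sequenced, and cell number was interpolated from 293T spike-in standard curves. The result is expressed as % of the median of DMSO wells. Two biological replicates.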

CC(=O)Nc1cccc(-n2c(=O)n(C3CC3)c(=O)c3c(Nc4ccc(I)cc4F)n(C)c(=O)c(C)c32)c1 [Trametinib]
Conditions | relative cell number
sgRNA knockout: sgATF3, 10 nM | 97.3
sgRNA knockout: sgATF3, 100 nM | 86.1
sgRNA knockout: sgATF3, 1000 nM | 93
sgRNA knockout: sgATF3, 10000 nM | 79.6
sgRNA knockout: sgATF4, 10 nM | 99.59
sgRNA knockout: sgATF4, 100 nM | 75.8
sgRNA knockout: sgATF4, 1000 nM | 77.3
sgRNA knockout: sgATF4, 10000 nM | 74.9
sgRNA knockout: sgATF6, 10 nM | 104
sgRNA knockout: sgATF6, 100 nM | 80
sgRNA knockout: sgATF6, 1000 nM | 88.7
sgRNA knockout: sgATF6, 10000 nM | 78.5
sgRNA knockout: sgATG7, 10 nM | 91.8
sgRNA knockout: sgATG7, 100 nM | 77.2
sgRNA knockout: sgATG7, 1000 nM | 79.8
sgRNA knockout: sgATG7, 10000 nM | 79.08
sgRNA knockout: sgERN1, 10 nM | 99.9
sgRNA knockout: sgERN1, 100 nM | 81.5
sgRNA knockout: sgERN1, 1000 nM | 91.6
sgRNA knockout: sgERN1, 10000 nM | 74.2
sgRNA knockout: sgHSF1, 10 nM | 94.3
sgRNA knockout: sgHSF1, 100 nM | 87.9
sgRNA knockout: sgHSF1, 1000 nM | 84
sgRNA knockout: sgHSF1, 10000 nM | 59.8
sgRNA knockout: sgHSF2, 10 nM | 98.7
sgRNA knockout: sgHSF2, 100 nM | 84.7
sgRNA knockout: sgHSF2, 1000 nM | 91
sgRNA knockout: sgHSF2, 10000 nM | 72.5
sgRNA knockout: sgKEAP1, 10 nM | 84.95
sgRNA knockout: sgKEAP1, 100 nM | 78.3
sgRNA knockout: sgKEAP1, 1000 nM | 81.7
sgRNA knockout: sgKEAP1, 10000 nM | 61.7
sgRNA knockout: sgNFE2L2, 10 nM | 93.2
sgRNA knockout: sgNFE2L2, 100 nM | 82.9
sgRNA knockout: sgNFE2L2, 1000 nM | 77.7
sgRNA knockout: sgNFE2L2, 10000 nM | 80.2
sgRNA knockout: sgSLC35F2, 10 nM | 96.1
sgRNA knockout: sgSLC35F2, 100 nM | 78.8
sgRNA knockout: sgSLC35F2, 1000 nM | 82.1
sgRNA knockout: sgSLC35F2, 10000 nM | 65.3
sgRNA knockout: sgXBP1, 10 nM | 90.1
sgRNA knockout: sgXBP1, 100 nM | 79.1
sgRNA knockout: sgXBP1, 1000 nM | 86.9
sgRNA knockout: sgXBP1, 10000 nM | 75.1

CCOc1ccccc1-n1c(C(C)N2CCN(C(=O)COc3ccc(Cl)cc3)CC2)nc2ccccc2c1=O (stereo unspecified) [Erastin]
Conditions | relative cell number
sgRNA knockout: sgATF3, 10 nM | 93.8
sgRNA knockout: sgATF3, 100 nM | 101.9
sgRNA knockout: sgATF3, 1000 nM | 101
sgRNA knockout: sgATF3, 10000 nM | 66.9
sgRNA knockout: sgATF4, 10 nM | 87.97
sgRNA knockout: sgATF4, 100 nM | 101
sgRNA knockout: sgATF4, 1000 nM | 88.2
sgRNA knockout: sgATF4, 10000 nM | 37.1
sgRNA knockout: sgATF6, 10 nM | 95.8
sgRNA knockout: sgATF6, 100 nM | 113
sgRNA knockout: sgATF6, 1000 nM | 106
sgRNA knockout: sgATF6, 10000 nM | 61.9
sgRNA knockout: sgATG7, 10 nM | 93.2
sgRNA knockout: sgATG7, 100 nM | 100
sgRNA knockout: sgATG7, 1000 nM | 95.6
sgRNA knockout: sgATG7, 10000 nM | 69.1
sgRNA knockout: sgERN1, 10 nM | 83.6
sgRNA knockout: sgERN1, 100 nM | 113
sgRNA knockout: sgERN1, 1000 nM | 96.7
sgRNA knockout: sgERN1, 10000 nM | 58.4
sgRNA knockout: sgHSF1, 10 nM | 97
sgRNA knockout: sgHSF1, 100 nM | 94.6
sgRNA knockout: sgHSF1, 1000 nM | 105
sgRNA knockout: sgHSF1, 10000 nM | 69.5
sgRNA knockout: sgHSF2, 10 nM | 103
sgRNA knockout: sgHSF2, 100 nM | 106
sgRNA knockout: sgHSF2, 1000 nM | 100
sgRNA knockout: sgHSF2, 10000 nM | 64.8
sgRNA knockout: sgKEAP1, 10 nM | 115
sgRNA knockout: sgKEAP1, 100 nM | 93.3
sgRNA knockout: sgKEAP1, 1000 nM | 101
sgRNA knockout: sgKEAP1, 10000 nM | 95
sgRNA knockout: sgNFE2L2, 10 nM | 85.4
sgRNA knockout: sgNFE2L2, 100 nM | 91.7
sgRNA knockout: sgNFE2L2, 1000 nM | 92.4
sgRNA knockout: sgNFE2L2, 10000 nM | 57
sgRNA knockout: sgSLC35F2, 10 nM | 96.207
sgRNA knockout: sgSLC35F2, 100 nM | 99.3
sgRNA knockout: sgSLC35F2, 1000 nM | 92.8
sgRNA knockout: sgSLC35F2, 10000 nM | 56.8
sgRNA knockout: sgXBP1, 10 nM | 84.5
sgRNA knockout: sgXBP1, 100 nM | 111
sgRNA knockout: sgXBP1, 1000 nM | 94
sgRNA knockout: sgXBP1, 10000 nM | 63.6

COC(=O)Nc1nc2cc(C(=O)c3ccccc3)ccc2[nH]1 [Mebendazole]
Conditions | relative cell number
sgRNA knockout: sgATF3, 10 nM | 92.7
sgRNA knockout: sgATF3, 100 nM | 82.5
sgRNA knockout: sgATF3, 1000 nM | 20.4
sgRNA knockout: sgATF3, 10000 nM | 19.7
sgRNA knockout: sgATF4, 10 nM | 90.5
sgRNA knockout: sgATF4, 100 nM | 84.6
sgRNA knockout: sgATF4, 1000 nM | 17.6
sgRNA knockout: sgATF4, 10000 nM | 19.3
sgRNA knockout: sgATF6, 10 nM | 81.3
sgRNA knockout: sgATF6, 100 nM | 73.2
sgRNA knockout: sgATF6, 1000 nM | 20.6
sgRNA knockout: sgATF6, 10000 nM | 18.4
sgRNA knockout: sgATG7, 10 nM | 96.2
sgRNA knockout: sgATG7, 100 nM | 85.1
sgRNA knockout: sgATG7, 1000 nM | 21.7
sgRNA knockout: sgATG7, 10000 nM | 21.3
sgRNA knockout: sgERN1, 10 nM | 96
sgRNA knockout: sgERN1, 100 nM | 85.7
sgRNA knockout: sgERN1, 1000 nM | 20.2
sgRNA knockout: sgERN1, 10000 nM | 23.8
sgRNA knockout: sgHSF1, 10 nM | 103
sgRNA knockout: sgHSF1, 100 nM | 70.8
sgRNA knockout: sgHSF1, 1000 nM | 23.7
sgRNA knockout: sgHSF1, 10000 nM | 25.3
sgRNA knockout: sgHSF2, 10 nM | 100
sgRNA knockout: sgHSF2, 100 nM | 82.8
sgRNA knockout: sgHSF2, 1000 nM | 20.9
sgRNA knockout: sgHSF2, 10000 nM | 21.2
sgRNA knockout: sgKEAP1, 10 nM | 91.2
sgRNA knockout: sgKEAP1, 100 nM | 84.6
sgRNA knockout: sgKEAP1, 1000 nM | 26.6
sgRNA knockout: sgKEAP1, 10000 nM | 27.1
sgRNA knockout: sgNFE2L2, 10 nM | 84.3
sgRNA knockout: sgNFE2L2, 100 nM | 88.5
sgRNA knockout: sgNFE2L2, 1000 nM | 16.1
sgRNA knockout: sgNFE2L2, 10000 nM | 19
sgRNA knockout: sgSLC35F2, 10 nM | 90.4
sgRNA knockout: sgSLC35F2, 100 nM | 77.9
sgRNA knockout: sgSLC35F2, 1000 nM | 18
sgRNA knockout: sgSLC35F2, 10000 nM | 24.6
sgRNA knockout: sgXBP1, 10 nM | 95.2
sgRNA knockout: sgXBP1, 100 nM | 90.6
sgRNA knockout: sgXBP1, 1000 nM | 19.9
sgRNA knockout: sgXBP1, 10000 nM | 22

CC(C)[C@]12O[C@H]1[C@@H]1O[C@]13[C@]1(O[C@H]1C[C@H]1C4=C(CC[C@@]13C)C(=O)OC4)[C@@H]2O [Triptolide]
Conditions | relative cell number
sgRNA knockout: sgATF3, 1 nM | 105
sgRNA knockout: sgATF3, 10 nM | 57.7
sgRNA knockout: sgATF3, 100 nM | 23.4
sgRNA knockout: sgATF3, 1000 nM | 17.2
sgRNA knockout: sgATF4, 1 nM | 96.2
sgRNA knockout: sgATF4, 10 nM | 67.9
sgRNA knockout: sgATF4, 100 nM | 25.3
sgRNA knockout: sgATF4, 1000 nM | 19
sgRNA knockout: sgATF6, 1 nM | 98.9
sgRNA knockout: sgATF6, 10 nM | 53.6
sgRNA knockout: sgATF6, 100 nM | 20.1
sgRNA knockout: sgATF6, 1000 nM | 17.6
sgRNA knockout: sgATG7, 1 nM | 99.6
sgRNA knockout: sgATG7, 10 nM | 65.4
sgRNA knockout: sgATG7, 100 nM | 22.1
sgRNA knockout: sgATG7, 1000 nM | 18.1
sgRNA knockout: sgERN1, 1 nM | 103
sgRNA knockout: sgERN1, 10 nM | 56.4
sgRNA knockout: sgERN1, 100 nM | 23.3
sgRNA knockout: sgERN1, 1000 nM | 18.2
sgRNA knockout: sgHSF1, 1 nM | 94
sgRNA knockout: sgHSF1, 10 nM | 54.8
sgRNA knockout: sgHSF1, 100 nM | 20.7
sgRNA knockout: sgHSF1, 1000 nM | 19.1
sgRNA knockout: sgHSF2, 1 nM | 105
sgRNA knockout: sgHSF2, 10 nM | 62.1
sgRNA knockout: sgHSF2, 100 nM | 25.6
sgRNA knockout: sgHSF2, 1000 nM | 16.2
sgRNA knockout: sgKEAP1, 1 nM | 91.5
sgRNA knockout: sgKEAP1, 10 nM | 51.13
sgRNA knockout: sgKEAP1, 100 nM | 28.2
sgRNA knockout: sgKEAP1, 1000 nM | 16.8
sgRNA knockout: sgNFE2L2, 1 nM | 96.5
sgRNA knockout: sgNFE2L2, 10 nM | 60.1
sgRNA knockout: sgNFE2L2, 100 nM | 25
sgRNA knockout: sgNFE2L2, 1000 nM | 19.6
sgRNA knockout: sgSLC35F2, 1 nM | 94.4
sgRNA knockout: sgSLC35F2, 10 nM | 69.3
sgRNA knockout: sgSLC35F2, 100 nM | 26.3
sgRNA knockout: sgSLC35F2, 1000 nM | 18
sgRNA knockout: sgXBP1, 1 nM | 103
sgRNA knockout: sgXBP1, 10 nM | 64.6
sgRNA knockout: sgXBP1, 100 nM | 23.9
sgRNA knockout: sgXBP1, 1000 nM | 18.1
